Experiment: Body weight (BW)
Assay type: in vivo, Zucker Fatty Rats
Conditions: Experiment 1; for BW vs control over the initial 33 days: differences not statistically significant; for Change in body weight after heat stress: survivors, 12 days after heat stress
[1] = Hi Asta, astaxanthin 25 mg/kg in feed
[2] = Lo Asta, astaxanthin 5 mg/kg in feed

SMILES | BW vs control over the initial 33 days [1] | BW vs control over the initial 33 days [2] | Change in body weight after heat stress [1] [g] | Change in body weight after heat stress [2] [g] | BW vs control over the initial 33 days (captopril 30 mg/kg in feed) | Change in body weight after heat stress (captopril 30 mg/kg in feed) [g]
CC1=C(/C=C/C(C)=C/C=C/C(C)=C/C=C/C=C(C)/C=C/C=C(C)/C=C/C2=C(C)C(=O)[C@@H](O)CC2(C)C)C(C)(C)C[C@H](O)C1=O [Asta, astaxanthin] | increased slightly over control | increased slightly over control | 24.3 ± 6.8 | 14.5 ± 13.2 | – | –
C[C@H](CS)C(=O)N1CCC[C@H]1C(=O)O [Captopril, reference compound] | – | – | – | – | increased slightly over control | 37.0 ± 18.4

Reference: patent publication US8877819B2, “Methods for treating heat stress and related compositions” (Georgetown University, priority 2008, dated 2014)
